# According to publication PMC4603714 (Drug Design, Development and Therapy, 2015):
# Assays:
# [1] = system: HeLa cells; conditions: read-out: HeLa IC50; MTT; ref Zhang et al.[8]; cited from earlier work
# [2] = system: U266 cells; conditions: read-out: U266 IC50; MTT; ref Zhang et al.[8]; cited from earlier work
# [3] = system: U937 xenograft; experiment: In vivo antitumor assay in U937 xenograft model; design: species or system male athymic nude mice (BALB/c-nu); conditions: U937 xenograft in nude mice, 100 mg/kg once a day orally for 12 days
# Outline: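 U937 cells were injected subcutaneously into the right flank of male BALB/c-nu mice aged 5–6 weeks. After about 10 days, at roughly 100 mm3, mice were randomized six per group. Dosing was oral, 100 mg/kg daily for 12 days, with controls given an equal volume of PBS. Calipers were used every 3 days, V = ab2/2, and RTV = Vt/V0. Body weight was tracked. Tumors were weighed and organs inspected at necropsy. Analysis used a two-tailed t-test, P<0.05.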
# [4] = system: U937 cells; conditions: read-out: U937 IC50; MTT; ref Zhang et al.[8]; cited from earlier work
# [5] = system: HCT116 cells; conditions: read-out: HCT116 IC50; MTT; ref Zhang et al.[8]; cited from earlier work
# [6] = system: KG-1 cells; conditions: read-out: KG-1 IC50; MTT; ref Zhang et al.[8]; cited from earlier work
# [7] = system: H7402 cells; conditions: read-out: H7402 IC50; MTT; ref Zhang et al.[8]; cited from earlier work
smiles,measurement,setting,value
"O=C(CCCCCCC(=O)Nc1ccccc1)NO [SAHA, suberoylanilide hydroxamic acid]",IC50,[1],9 µM
same,IC50,[2],1.4 µM
same,Relative increment ratio (T/C),[3],49%
same,IC50,[4],4.2 µM
same,IC50,[5],4.1 µM
same,IC50,[6],2.7 µM
same,IC50,[7],8 µM
